In US6767720:
Results are given in words; binding and its absence hold for the method and conditions named. For some assays here: In cells and extracts the contact can be indirect. Some binding calls cover weakened binding; strength is not graded here. Sequences can lack the tags named with a protein. Each block holds one binder with its values, some of them ahead of it.

By UniProt entry, the sequences of proteins in these tests, tags left out. Where a name states a change or a piece, a line headed by the entry shows the natural chain unless it says otherwise.
UniProt P04386: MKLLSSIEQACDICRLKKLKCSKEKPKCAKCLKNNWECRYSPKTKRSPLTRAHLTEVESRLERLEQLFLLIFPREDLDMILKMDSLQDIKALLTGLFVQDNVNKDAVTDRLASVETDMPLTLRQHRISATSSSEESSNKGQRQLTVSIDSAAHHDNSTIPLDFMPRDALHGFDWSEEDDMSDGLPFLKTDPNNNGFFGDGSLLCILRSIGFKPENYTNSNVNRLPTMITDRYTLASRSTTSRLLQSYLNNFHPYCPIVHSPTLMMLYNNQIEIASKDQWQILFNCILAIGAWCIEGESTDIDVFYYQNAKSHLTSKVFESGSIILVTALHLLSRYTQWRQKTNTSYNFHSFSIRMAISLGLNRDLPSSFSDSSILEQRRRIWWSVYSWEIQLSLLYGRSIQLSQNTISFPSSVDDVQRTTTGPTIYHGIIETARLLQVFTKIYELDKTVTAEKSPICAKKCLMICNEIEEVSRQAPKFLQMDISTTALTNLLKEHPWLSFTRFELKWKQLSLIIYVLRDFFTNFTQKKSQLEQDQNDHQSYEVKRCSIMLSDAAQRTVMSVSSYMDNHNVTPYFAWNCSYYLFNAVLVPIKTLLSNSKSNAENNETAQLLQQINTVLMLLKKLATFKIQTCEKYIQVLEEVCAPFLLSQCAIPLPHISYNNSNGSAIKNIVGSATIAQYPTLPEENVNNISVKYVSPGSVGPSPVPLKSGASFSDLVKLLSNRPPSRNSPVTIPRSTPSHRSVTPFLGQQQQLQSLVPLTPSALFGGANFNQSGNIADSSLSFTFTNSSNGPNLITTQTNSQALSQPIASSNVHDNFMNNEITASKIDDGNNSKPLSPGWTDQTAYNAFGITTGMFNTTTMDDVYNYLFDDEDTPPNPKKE

Columns and labels:
[1] = target: αN-catenin residues 4-535 fused to the GAL4-DBD (plasmid pGBT9ANCTN(EcoRI-PstI)) (human) (UniProt P04386+P26232); test: yeast two-hybrid (FIG. 4)
[2] = target: T1, human αN-catenin fused to the GAL4-DBD in pGBT9 (plasmid pGBT9ANCTN) (human) (UniProt P04386+P26232); test: yeast two-hybrid, strain Y190 (FIG. 11)
[3] = target: T1, human αN-catenin fused to the GAL4-DBD in pGBT9 (plasmid pGBT9ANCTN) (human); test: yeast two-hybrid retransformation, strain HF7c, HIS3 and LacZ reporters
[4] = target: T1, human αN-catenin fused to the GAL4-DBD in pGBT9 (plasmid pGBT9ANCTN) (human); test: yeast two-hybrid, strain Y190 (FIG. 16)
[5] = target: T1, human αN-catenin fused to the GAL4-DBD in pGBT9 (plasmid pGBT9ANCTN) (human); test: yeast two-hybrid
[6] = target: T2, human αN-catenin expressed from plasmid pPNhANCTN in HEK293T cells (human) (UniProt P26232); test: co-immunoprecipitation from cotransfected HEK293T cells
T2 sequence (looked up): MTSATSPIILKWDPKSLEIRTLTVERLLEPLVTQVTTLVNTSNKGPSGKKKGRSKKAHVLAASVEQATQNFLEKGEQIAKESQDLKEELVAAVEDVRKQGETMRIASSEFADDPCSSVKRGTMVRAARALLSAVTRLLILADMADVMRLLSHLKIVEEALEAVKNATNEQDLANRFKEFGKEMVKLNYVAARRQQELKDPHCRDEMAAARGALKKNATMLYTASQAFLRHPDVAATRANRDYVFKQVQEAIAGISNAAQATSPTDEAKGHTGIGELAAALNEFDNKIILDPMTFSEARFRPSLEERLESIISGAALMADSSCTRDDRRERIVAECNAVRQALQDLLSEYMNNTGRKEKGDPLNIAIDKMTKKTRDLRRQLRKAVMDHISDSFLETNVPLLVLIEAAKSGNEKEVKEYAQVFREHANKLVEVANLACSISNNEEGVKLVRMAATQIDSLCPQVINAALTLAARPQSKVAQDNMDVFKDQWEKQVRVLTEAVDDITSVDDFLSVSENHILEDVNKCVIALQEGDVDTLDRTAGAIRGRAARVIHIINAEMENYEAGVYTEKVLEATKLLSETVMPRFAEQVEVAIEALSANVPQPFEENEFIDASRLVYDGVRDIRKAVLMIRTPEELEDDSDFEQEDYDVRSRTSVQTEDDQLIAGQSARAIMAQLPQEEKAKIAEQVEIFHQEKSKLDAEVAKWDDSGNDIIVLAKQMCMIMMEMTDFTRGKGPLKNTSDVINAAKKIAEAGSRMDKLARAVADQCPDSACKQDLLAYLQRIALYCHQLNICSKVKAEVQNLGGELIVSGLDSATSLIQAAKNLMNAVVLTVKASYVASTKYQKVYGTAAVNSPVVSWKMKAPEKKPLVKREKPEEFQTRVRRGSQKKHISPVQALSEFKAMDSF

[7] = target: T2, human αN-catenin expressed from plasmid pPNhANCTN in HEK293T cells (human); test: co-immunoprecipitation from cotransfected HEK293T cells, Western blot
[8] = target: T2, human αN-catenin expressed from plasmid pPNhANCTN in HEK293T cells (human); test: co-immunoprecipitation from cotransfected HEK293T cells, Western blot (FIG. 14)
[9] = target: T1, human αN-catenin fused to the GAL4-DBD in pGBT9 (plasmid pGBT9ANCTN) (human); test: yeast two-hybrid, HIS3 and LacZ reporters

binding [1]: binds | binding [2]: binds | binding [3]: binds
B1: ANC-2H01 initial two-hybrid clone (part of ANC-2H01 fused to the GAL4-AD, plasmid pGAD10ANC2H01) (protein, not shown: large carriers)
chain: IADGFNGIFSDHCYSVCSMRQPDLKYFDNKDDDSDTETSNDLPKFADGIKARNRNQNYLVPSPVLRILDHTAFSTEKSADIVICDEECDSPESVNQQTQEESPIEVHTAEDVPIAVEVHAISEDYDIETENNSSESLQDQTDEEPPAKLCKILDKSQALNVTAQQKWPLLRANSSGLYKCELCEFNSKYFSDLKQHMILKHKRTDSNVCRVCKESFSTNMLLIEHAKLHEEDPYICKYCDYKTVIFENLSQHIADTHFSDHLYWCEQCDVQFSSSSELYLHFQEHSCDEQYLCQFCEHETNDPEDLHSHVVNEHACKLIELSDKYNNGEHGQYSLLSKITFDKCKNFFVCQVCGFRSRLHTNVNRHVAIEHTKIFPHVCDDCGKGFSSMLEYCKHLNSHLSEGIYLCQYCEYSTGQIEDLKIHLDFKHSADLPHKCSDCLMRFGNERELISHLPVHETT

binding [4]: binds
B2: zinc fingers 4 to 9 of ANC-2H01 fused to the GAL4-AD (plasmid pACT2ANC2H01ZF4-9) (protein, not shown: large carriers)
chain: LYWCEQCDVQFSSSSELYLHFQEHSCDEQYLCQFCEHETNDPEDLHSHVVNEHACKLIELSDKYNNGEHGQYSLLSKITFDKCKNFFVCQVCGFRSRLHTNVNRHVAIEHTKIFPHVCDDCGKGFSSMLEYCKHLNSHLSEGIYLCQYCEYSTGQIEDLKIHLDFKHSADLPHKCSDCLMRFGNERELISHLPVHETT

binding [6]: binds | binding [7]: binds | binding [8]: binds
B5: E-tagged full-length ANC-2H01 protein (expression plasmid pEFBOSANC-2H01E), expressed in HEK293T cells (protein, not shown: small tags and cut ends)
chain: MNEYPKKRKRKTLHPSRYSDSSGISRIADGFNGIFSDHCYSVCSMRQPDLKYFDNKDDDSDTETSNDLPKFADGIKARNRNQNYLVPSPVLRILDHTAFSTEKSADIVICDEECDSPESVNQQTQEESPIEVHTAEDVPIAVEVHAISEDYDIETENNSSESLQDQTDEEPPAKLCKILDKSQALNVTAQQKWPLLRANSSGLYKCELCEFNSKYFSDLKQHMILKHKRTDSNVCRVCKESFSTNMLLIEHAKLHEEDPYICKYCDYKTVIFENLSQHIADTHFSDHLYWCEQCDVQFSSSSELYLHFQEHSCDEQYLCQFCEHETNDPEDLHSHVVNEHACKLIELSDKYNNGEHGQYSLLSKITFDKCKNFFVCQVCGFRSRLHTNVNRHVAIEHTKIFPHVCDDCGKGFSSMLEYCKHLNSHLSEGIYLCQYCEYSTGQIEDLKIHLDFKHSADLPHKCSDCLMRFGNERELISHLPVHETT

Second part, the binder before the results:

B3: zinc fingers 6 to 9 of ANC-2H01 fused to the GAL4-AD (plasmid pACT2ANC2H01ZF6-9) (protein, not shown: large carriers)
chain: KNFFVCQVCGFRSRLHTNVNRHVAIEHTKIFPHVCDDCGKGFSSMLEYCKHLNSHLSEGIYLCQYCEYSTGQIEDLKIHLDFKHSADLPHKCSDCLMRFGNERELISHLPVHETT
binding [5]: binds | binding [4]: binds

B4: about full-length ANC-2H01 fused to the GAL4-AD (plasmid pGAD424ANC-2H01-FL) (protein, not shown: large carriers)
chain: B5 chain
binding [2]: binds

B6: zinc finger domain of ANC-2H01 fused to the GAL4-AD (plasmid pGAD424ANC-2H01-ZF) (protein, not shown: large carriers)
chain: LYKCELCEFNSKYFSDLKQHMILKHKRTDSNVCRVCKESFSTNMLLIEHAKLHEEDPYICKYCDYKTVIFENLSQHIADTHFSDHLYWCEQCDVQFSSSSELYLHFQEHSCDEQYLCQFCEHETNDPEDLHSHVVNEHACKLIELSDKYNNGEHGQYSLLSKITFDKCKNFFVCQVCGFRSRLHTNVNRHVAIEHTKIFPHVCDDCGKGFSSMLEYCKHLNSHLSEGIYLCQYCEYSTGQIEDLKIHLDFKHSADLPHKCSDCLMRFGNERELISHLPVHETT
binding [9]: binds
